Test results taken from patent publication US20080287429A1 (Z & Z Medical Holdings, Inc., priority 2007, published 2008).
At least one structure is not confirmed: it was looked up by name or label, or the drawing left a doubt.

Tested on: atherosclerotic plaque in pig artery
Assay: Solubilization of atherosclerotic plaque material in ex vivo samples of pig artery
Settings: 50 mg/mL DCA bath, after 36 hours of exposure
Description: Early in the treatment, on removal of the sample from the bath a clear, viscous, column of fluid extended from the sample. This column of fluid continued to be apparent when samples were evaluated up to about 4 or 5 hours, after which the fluid column was no longer noted. Without wishing to be held to any one theory of operation, it was concluded that the clear fluid comprised components of the plaque. […] The sample was continuously exposed for a period of 8 days.

`C[C@H](CCC(=O)O)[C@H]1CC[C@H]2[C@@H]3CC[C@@H]4C[C@H](O)CC[C@]4(C)[C@H]3C[C@H](O)[C@]12C` [DCA, deoxycholic acid] was tested, and the “plaque appearance (macroscopic)” value was “All core material appeared to have been solubilized”.
